Laboratory results: the supplement of paper PMC10849652
This is one part of the list.

The chains behind the UniProt entries cited, without tags or fusion partners. Where a name states a change or a piece, a line headed by the entry shows the natural chain unless it says otherwise.
UniProt Q9Y3D2: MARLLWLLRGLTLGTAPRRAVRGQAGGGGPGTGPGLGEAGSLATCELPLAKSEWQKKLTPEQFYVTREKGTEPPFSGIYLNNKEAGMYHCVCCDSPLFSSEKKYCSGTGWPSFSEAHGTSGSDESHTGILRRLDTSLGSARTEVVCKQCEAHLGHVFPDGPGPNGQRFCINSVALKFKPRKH
UniProt Q13330: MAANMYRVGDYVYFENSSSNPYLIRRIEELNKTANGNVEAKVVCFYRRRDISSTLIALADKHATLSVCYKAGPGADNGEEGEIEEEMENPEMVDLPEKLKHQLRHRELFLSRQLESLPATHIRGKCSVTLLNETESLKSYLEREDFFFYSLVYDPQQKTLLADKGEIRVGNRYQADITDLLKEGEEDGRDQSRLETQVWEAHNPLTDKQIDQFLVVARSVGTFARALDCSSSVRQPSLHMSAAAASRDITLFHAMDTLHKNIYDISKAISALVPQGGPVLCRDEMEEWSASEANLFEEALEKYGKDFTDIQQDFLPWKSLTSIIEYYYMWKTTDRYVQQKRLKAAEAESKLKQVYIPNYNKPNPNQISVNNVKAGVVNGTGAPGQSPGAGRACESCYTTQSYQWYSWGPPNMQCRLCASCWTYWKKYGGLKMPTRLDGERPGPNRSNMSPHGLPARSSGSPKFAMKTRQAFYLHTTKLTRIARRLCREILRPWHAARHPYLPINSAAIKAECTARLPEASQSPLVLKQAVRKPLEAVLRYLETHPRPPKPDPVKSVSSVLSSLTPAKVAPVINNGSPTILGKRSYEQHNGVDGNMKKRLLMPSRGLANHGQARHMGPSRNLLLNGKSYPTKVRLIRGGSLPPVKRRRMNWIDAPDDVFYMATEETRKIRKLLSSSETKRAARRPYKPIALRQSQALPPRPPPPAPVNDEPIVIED
UniProt Q13614, whole entry, looked up: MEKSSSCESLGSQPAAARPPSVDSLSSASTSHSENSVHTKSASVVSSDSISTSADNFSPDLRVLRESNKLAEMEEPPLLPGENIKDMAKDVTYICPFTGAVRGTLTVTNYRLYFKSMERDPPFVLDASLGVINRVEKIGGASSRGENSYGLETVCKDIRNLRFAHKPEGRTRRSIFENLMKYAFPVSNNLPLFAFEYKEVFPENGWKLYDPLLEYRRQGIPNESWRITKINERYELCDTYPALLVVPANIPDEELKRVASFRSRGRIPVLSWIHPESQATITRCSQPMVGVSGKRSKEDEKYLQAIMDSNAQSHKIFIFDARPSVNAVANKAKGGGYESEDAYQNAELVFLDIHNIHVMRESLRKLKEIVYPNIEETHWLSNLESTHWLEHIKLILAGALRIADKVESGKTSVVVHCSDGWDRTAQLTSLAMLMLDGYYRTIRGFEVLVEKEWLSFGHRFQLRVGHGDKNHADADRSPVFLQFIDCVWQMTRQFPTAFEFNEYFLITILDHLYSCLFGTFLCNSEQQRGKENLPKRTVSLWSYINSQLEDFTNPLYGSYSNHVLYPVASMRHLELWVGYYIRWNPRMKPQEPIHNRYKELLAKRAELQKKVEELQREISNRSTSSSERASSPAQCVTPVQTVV
UniProt P03915, whole entry, looked up: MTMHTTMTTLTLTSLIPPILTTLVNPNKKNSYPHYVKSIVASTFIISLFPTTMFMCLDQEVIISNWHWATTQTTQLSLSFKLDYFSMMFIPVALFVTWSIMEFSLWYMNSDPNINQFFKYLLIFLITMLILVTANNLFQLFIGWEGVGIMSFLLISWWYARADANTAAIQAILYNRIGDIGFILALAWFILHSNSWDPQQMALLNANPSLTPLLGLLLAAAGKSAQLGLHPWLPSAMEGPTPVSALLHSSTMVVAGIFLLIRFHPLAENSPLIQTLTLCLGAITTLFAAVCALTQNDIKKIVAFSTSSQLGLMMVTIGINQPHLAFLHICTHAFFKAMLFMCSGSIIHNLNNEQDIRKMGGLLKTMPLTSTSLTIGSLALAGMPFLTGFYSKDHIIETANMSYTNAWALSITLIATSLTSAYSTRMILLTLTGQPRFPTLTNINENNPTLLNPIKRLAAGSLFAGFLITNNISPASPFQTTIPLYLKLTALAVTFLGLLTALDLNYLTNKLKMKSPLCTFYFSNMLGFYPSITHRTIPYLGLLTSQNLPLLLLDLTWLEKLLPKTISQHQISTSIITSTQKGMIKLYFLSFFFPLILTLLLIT
UniProt P13640: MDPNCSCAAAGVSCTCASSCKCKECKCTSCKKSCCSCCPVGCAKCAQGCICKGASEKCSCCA
UniProt Q9NVV4: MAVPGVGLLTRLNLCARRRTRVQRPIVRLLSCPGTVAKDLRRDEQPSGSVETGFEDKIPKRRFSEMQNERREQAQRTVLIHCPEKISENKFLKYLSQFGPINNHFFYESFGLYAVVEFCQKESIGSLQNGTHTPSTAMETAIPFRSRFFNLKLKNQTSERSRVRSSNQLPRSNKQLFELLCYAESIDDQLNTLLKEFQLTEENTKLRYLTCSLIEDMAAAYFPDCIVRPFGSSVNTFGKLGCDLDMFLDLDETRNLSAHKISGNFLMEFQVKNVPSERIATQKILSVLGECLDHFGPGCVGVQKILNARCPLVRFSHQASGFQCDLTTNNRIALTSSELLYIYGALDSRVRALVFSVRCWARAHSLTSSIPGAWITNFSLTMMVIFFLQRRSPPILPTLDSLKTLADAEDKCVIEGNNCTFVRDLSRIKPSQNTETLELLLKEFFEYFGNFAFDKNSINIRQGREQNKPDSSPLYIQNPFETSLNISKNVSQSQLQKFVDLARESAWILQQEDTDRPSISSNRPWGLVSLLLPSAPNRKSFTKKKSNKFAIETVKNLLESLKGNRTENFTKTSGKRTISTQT
UniProt P03923, whole entry, looked up: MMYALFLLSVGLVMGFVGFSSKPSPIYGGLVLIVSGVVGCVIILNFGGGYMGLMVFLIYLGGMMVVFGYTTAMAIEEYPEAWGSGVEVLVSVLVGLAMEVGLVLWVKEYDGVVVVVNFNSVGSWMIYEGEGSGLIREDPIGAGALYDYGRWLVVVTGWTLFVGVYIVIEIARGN
UniProt P00156: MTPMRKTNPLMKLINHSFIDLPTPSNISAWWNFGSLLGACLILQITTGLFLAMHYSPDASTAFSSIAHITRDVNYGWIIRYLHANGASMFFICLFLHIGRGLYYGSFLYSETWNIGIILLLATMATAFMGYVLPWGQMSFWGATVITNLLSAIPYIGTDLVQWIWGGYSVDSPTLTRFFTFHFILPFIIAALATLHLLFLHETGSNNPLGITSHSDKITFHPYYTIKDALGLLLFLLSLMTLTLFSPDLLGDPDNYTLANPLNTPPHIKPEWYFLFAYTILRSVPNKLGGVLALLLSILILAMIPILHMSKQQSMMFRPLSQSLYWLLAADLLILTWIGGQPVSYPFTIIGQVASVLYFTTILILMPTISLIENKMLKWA
UniProt Q9NXD2: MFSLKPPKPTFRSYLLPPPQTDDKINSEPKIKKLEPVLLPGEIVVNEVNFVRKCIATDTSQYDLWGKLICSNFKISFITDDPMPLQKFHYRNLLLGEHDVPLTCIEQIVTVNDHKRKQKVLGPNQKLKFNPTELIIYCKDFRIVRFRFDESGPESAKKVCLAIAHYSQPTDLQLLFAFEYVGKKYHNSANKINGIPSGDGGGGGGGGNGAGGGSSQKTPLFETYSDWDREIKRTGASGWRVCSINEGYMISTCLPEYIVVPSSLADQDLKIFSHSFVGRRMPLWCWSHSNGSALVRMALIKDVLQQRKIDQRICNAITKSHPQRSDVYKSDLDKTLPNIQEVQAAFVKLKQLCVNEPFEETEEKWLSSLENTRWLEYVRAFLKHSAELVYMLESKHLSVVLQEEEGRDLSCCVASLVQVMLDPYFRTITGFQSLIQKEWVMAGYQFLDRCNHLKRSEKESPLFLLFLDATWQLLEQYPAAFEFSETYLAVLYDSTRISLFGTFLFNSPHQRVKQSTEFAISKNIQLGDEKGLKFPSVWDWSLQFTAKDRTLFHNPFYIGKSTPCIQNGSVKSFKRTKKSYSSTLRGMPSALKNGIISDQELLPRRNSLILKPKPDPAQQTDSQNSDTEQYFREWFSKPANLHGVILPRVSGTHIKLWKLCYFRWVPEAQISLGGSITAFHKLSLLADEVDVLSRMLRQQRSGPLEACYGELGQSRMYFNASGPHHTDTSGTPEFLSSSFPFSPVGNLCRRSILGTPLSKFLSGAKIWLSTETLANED
UniProt Q2M296: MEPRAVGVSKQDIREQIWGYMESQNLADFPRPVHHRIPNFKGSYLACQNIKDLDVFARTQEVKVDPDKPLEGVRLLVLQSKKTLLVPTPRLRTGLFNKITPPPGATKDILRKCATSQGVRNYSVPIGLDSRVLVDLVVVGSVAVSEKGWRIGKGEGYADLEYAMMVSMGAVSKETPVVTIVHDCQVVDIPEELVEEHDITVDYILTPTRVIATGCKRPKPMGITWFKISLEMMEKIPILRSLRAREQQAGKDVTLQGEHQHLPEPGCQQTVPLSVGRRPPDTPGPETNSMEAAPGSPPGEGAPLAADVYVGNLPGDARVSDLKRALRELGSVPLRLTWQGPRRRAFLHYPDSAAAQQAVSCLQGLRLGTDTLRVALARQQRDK

Columns and labels:
Test in all cases: log2 fold change, soluble protein after heating vs DMSO (PISA); higher = thermal stabilisation; K562 lysate, 10 uM; active = over 0.2 and 3.5 SD of the protein, either way, in both replicates (recomputed)
[1] = compound: C1=CC=C(C=C1)[C@H](COC2=CC3=C(C=C2)NC(=O)N3)NC(=O)C4=CC=CN(C4=O)CC5=CC(=C(C=C5)F)F
Procedure, shortened: (§1)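 K562 pellets were dounce-homogenised in PBS pH 7.4 with 1 mM MgCl2, and the crude extract at 1 mg/mL protein was treated with 10 μM compound for 30 min. Aliquots were heated for 3 min across 48°C-58°C, pooled, and brought to 0.5% NP-40 at 4°C; soluble protein was the supernatant after 21,000xg for 90 min. Soluble protein was quantified by TMTpro 16plex LC-MS/MS with channel sums equalised, and reported as log2 fold change in thermal stability against DMSO controls, with values from duplicates.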

[2] = compound: CC1=C(SC2=C1C(=N[C@H](C3=NN=C(N32)C)CC(=O)N)C4=CC=C(C=C4)Cl)C
Procedure, shortened: as §1

[3] = compound: CC1=C2C(=CC=C1)N=C(N(C2=O)C3=CC=CC=C3C)CN4C=NC5=C(N=CN=C54)N
Procedure, shortened: as §1

[4] = compound: Cc1sc2c(c1C)C(c1ccc(Cl)cc1)=N[C@@H](CC(=O)OC(C)(C)C)c1nnc(C)n1-2
Procedure, shortened: as §1

[5] = compound: c1ccc([C@@H]2C[C@H]2NC2CCNCC2)cc1
Procedure, shortened: as §1

Measured: log2 fold change

MRPL40 (UniProt Q9NQ50)
inactive: [1] -0.013 | [2] 0.018 | [3] -0.082 | [4] -0.085 | [5] 0.032

MSRB2 (UniProt Q9Y3D2)
inactive: [1] -0.009 | [2] -0.032 | [3] -0.13 | [4] -0.013 | [5] 0.028

MTA1 (UniProt Q13330)
inactive: [1] 0.005 | [2] -0.01 | [3] 0.01 | [4] 0.055 | [5] 0.012

MRPS10 (UniProt P82664)
inactive: [1] 0.072 | [2] 0.021 | [3] 0.092 | [4] -0.022 | [5] 0.022

MRPL44 (UniProt Q9H9J2)
inactive: [1] -0.015 | [2] -0.024 | [3] 0.053 | [4] -0.007 | [5] 0.011

MRPS34 (UniProt P82930)
inactive: [1] -0.001 | [2] 0.043 | [3] -0.03 | [4] 0.092 | [5] 0.08

MRPS18A isoform 2 (UniProt Q9NVS2)
inactive: [1] 0.005 | [2] -0.101 | [3] 0.054 | [4] 0.066 | [5] 0.2

MTMR2 (UniProt Q13614)
inactive: [1] 0.009 | [2] 0.033 | [3] -0.003 | [4] 0.013 | [5] 0.015

MRPL49 (UniProt Q13405)
inactive: [1] -0.154 | [2] 0.019 | [3] 0.072 | [4] 0.047 | [5] 0

MRPS5 (UniProt P82675)
inactive: [1] 0.037 | [2] -0.047 | [3] 0.099 | [4] 0.069 | [5] 0.034

MT-ND5 (UniProt P03915)
inactive: [1] -0.122 | [2] -0.018 | [3] 0.062 | [4] 0.092 | [5] 0.01

MT1G (UniProt P13640)
inactive: [1] 0.094 | [2] -0.072 | [3] -0.005 | [4] 0.091 | [5] -0.144

Quoted from the listing (two entries):
MRPS10 (UniProt P82664)
inactive: [1] 0.072 | [2] 0.021 | [3] 0.092 | [4] -0.022 | [5] 0.022

MRPL44 (UniProt Q9H9J2)
inactive: [1] -0.015 | [2] -0.024 | [3] 0.053 | [4] -0.007 | [5] 0.011

Remaining list, next part

MTPAP (UniProt Q9NVV4)
inactive: [3] -0.034 | [4] 0.083 | [5] 0.029

MT-ND6 (UniProt P03923)
inactive: [5] -0.036

MT-CYB (UniProt P00156)
inactive: [1] 0.062 | [2] -0.091 | [3] -0.052 | [4] -0.132 | [5] -0.468

MTMR10 (UniProt Q9NXD2)
inactive: [4] -0.077

MRPL27 (UniProt Q9P0M9)
inactive: [1] 0.002 | [2] -0.046 | [4] -0.048 | [5] 0.208

MTHFSD (UniProt Q2M296)
inactive: [1] -0.055 | [2] 0.013 | [4] 0.125
